# Screen size: about 360,000 compounds; about 780 (0.22%) were called active. Inconclusive means that the source gave no clear call. Such entries were picked first, then a sample of the others. Cut-off read from the data, not from the text of the source: active = inhibition above about 35% (passing the limit was not always enough); inconclusive = no clear call, values can overlap the other calls.
# Tested on: Botulinum neurotoxin type F light chain protease (Clostridium botulinum)
# Assay: BoNT/F light chain protease inhibitors, primary screen, biochemical, flow cytometry, MLPCN library (AID 588497); note: plate controls were buffer without enzyme for full effect and enzyme alone for no effect
# Settings: Multiplex microsphere protease cleavage assay, at 10 µM, stronger effect = higher value
row,Compound,inhibition
1,COc1ccc(-c2cc(=O)c3ccccc3o2)cc1,inactive: 0.4%
2,COc1ccccc1NC(=O)C(C)OC(=O)CCCc1c[nH]c2ccccc12 (configuration not stated),inconclusive: 11.7%
3,CC(C)N1CC(C(=O)Nc2ccc(Cl)c([N+](=O)[O-])c2)CC1=O (configuration not stated),inconclusive: -13.2%
4,CC1Cc2ccccc2N1C(=O)COC(=O)c1ccc([N+](=O)[O-])o1 (configuration not stated),inconclusive: -13.8%
5,NNC(=O)Cn1c2ccccc2c2ccccc21,inconclusive: -74.3%
6,CCCCN(CCNP(=O)(OCC)OCC)CP(=O)(OCC)OCC,inactive: 0.8%
7,COc1ccc(CCC(=O)N2CCN(C3CCCCC3)CC2)cc1,inactive: -0.3%
8,C=CCN1C(=O)/C(=C\C(C)=C\c2ccccc2)SC1=S,inconclusive: 1.3%
9,CCCc1nnc(NC(=O)C23CC4CC(CC(C4)C2)C3)s1,inconclusive: 40.1%
10,COCCCN(CCC#N)C(=O)c1c(-c2c(Cl)cccc2Cl)noc1C,inconclusive: -10.7%
11,Cc1ccc(N(Cc2cc(=O)[nH]c3ccccc23)C(=O)C(C)C)c(C)c1,inconclusive: 1.4%
12,O=C(CSc1ccccn1)C12CC3CC(CC(C3)C1)C2,inactive: -13.1%
13,C=Cc1ccc(CN2CCCN(Cc3ccc(F)cc3)S2(=O)=O)cc1,active: 44.9%
14,O=C(NCCNC(=O)c1ccccc1[N+](=O)[O-])c1ccccc1[N+](=O)[O-],inconclusive: 34%
15,O=C1C(=O)N(CC2COc3ccccc3O2)c2ccccc21 (configuration not stated),inconclusive: 0.9%
16,S=c1[nH]nc(-c2ccccn2)n1/N=C/c1c(Cl)cccc1Cl,inconclusive: -40.5%
17,COc1cc(OC)c(C2C(C#N)=C(C)NC(C)=C2C#N)c(C(=O)O)c1,inconclusive: 4.2%
18,CCc1cc(S(=O)(=O)N2CCN(C(=O)c3ccco3)CC2)ccc1OC,inconclusive: -18.5%
19,O=C(O)CCSCC(=O)Nc1c(C(=O)C2CC2)oc2ccccc12,inconclusive: -6.4%
20,O=C(NCCc1ccc(Cl)cc1)c1cnc2n(c1=O)CCS2,inactive: -6.1%
21,Cn1c2ccccc2c(=O)c2c(=O)n(-c3ccccc3)c(-c3ccc(C(C)(C)C)cc3)nc21,inconclusive: 89.3%
22,Cc1cccc(NS(=O)(=O)c2ccc(Cl)cc2)n1,inconclusive: -22%
23,O=C(c1cc2ccccc2[nH]1)N1O[C@@H]2C=C[C@H]1C2,inactive: -7.5%

row,Compound,inhibition
1,Cc1ccc(-n2c(SCC(N)=O)nnc2-c2cnccn2)cc1,inconclusive: -2%
2,COc1ccc(CN(Cc2ccc(C(=O)O)cc2)C(=S)Nc2ccc(C)cc2)cc1OC,inactive: -1.5%
3,COc1ccc(CC(=O)N2CCN(c3ccccc3)CC2)cc1OC,inconclusive: -26.5%
4,Cc1onc(-c2c(Cl)cccc2Cl)c1C(=O)Nc1nc(C(C)(C)C)cs1,inconclusive: 48.2%
5,COc1cc(C(=O)N/C(=C\c2cn(S(=O)(=O)N(C)C)c3ccccc23)C(=O)N2CCCC2)cc(OC)c1OC,inactive: 3.5%
6,CCOc1ccc(C2(C)NC(=O)N(CCN(C)C)C2=O)cc1 (configuration not stated),inconclusive: -15%
7,CCCCn1c(SCC(=O)Nc2nnc(C)s2)nc2c1c(=O)n(C)c(=O)n2C,inactive: 2.4%
8,Cc1ccc(C(=O)NCCNS(=O)(=O)c2ccccc2[N+](=O)[O-])cc1,inconclusive: -20.6%
9,COc1ccc(CC2(CO)CCN(S(=O)(=O)c3cccc4cccnc34)CC2)cc1,inconclusive: 2.7%
10,CCOC(=O)Cn1cc(/C=N/NC(=O)c2ccc(C#N)cc2F)c2ccccc21,inactive: 3.3%
11,CCN(Cc1cc(=O)[nH]c2ccccc12)C(=O)c1ccc(C)cc1,inactive: -0.8%
12,O=C(CCCC(=O)OCC(=O)c1ccc(Cl)cc1)NC1CCCCC1,inactive: 1.3%
13,O/N=C/c1cc(Br)cs1,inconclusive: -22.1%
14,Cc1nccc(-c2cc(-c3ccc(Cl)cc3Cl)no2)n1,inconclusive: -41.1%
15,COc1ccc(C(=O)NNC(=S)NC(=O)c2cccc([N+](=O)[O-])c2)cc1,inconclusive: -43.7%
16,CCN(CC)c1ccc(/C=c2\sc3nnc(-c4ccccc4Cl)n3c2=O)cc1,active: 125%
17,NC(=O)CSc1nnc(-c2cc(-c3ccc(Cl)cc3)nc3ccccc23)o1,inactive: -6.5%
18,CCCC(=O)Nc1sc(-c2ccccc2)c(-c2ccccc2)c1C(=O)O,inconclusive: 0.6%
19,Cc1ccccc1CNC(=O)c1cc2ccccc2o1,inconclusive: 15.5%
20,COc1ncnc2c1ncn2CCCN1CCN(Cc2ccc(C)cc2)CC1,inactive: -5.4%
21,O=C(CCC(=O)NC12CC3CC(CC(C3)C1)C2)NC1CCCCC1,inconclusive: 16.8%
22,CC(=O)NC1=NN(C(C)=O)C2(S1)C(=O)N(CC(C)C)c1ccc(C)cc12 (configuration not stated),inconclusive: 6.7%
23,CCCCn1c(N)c(N(CCC(C)C)C(=O)C2CCCN(C(=O)c3ccc(Cl)cc3)C2)c(=O)[nH]c1=O (configuration not stated),inconclusive: -7.4%

# Filtered by structure, the compounds so far with a thiophene ring, fused or not
row,Compound,inhibition
13,O/N=C/c1cc(Br)cs1,inconclusive: -22.1%
18,CCCC(=O)Nc1sc(-c2ccccc2)c(-c2ccccc2)c1C(=O)O,inconclusive: 0.6%

# (continued)

row,Compound,inhibition
1,CCOC(=O)/C(C#N)=C/N=c1ccc(C)cn1C,inconclusive: -31.9%
2,C=CCn1c(O)c(C(C)=NCCN2CCN(C(=S)NC)CC2)c(=O)[nH]c1=O,inconclusive: -18.1%
3,Cc1ccc(N2C(=O)CC3(CCCC3)CC2=O)cc1,inconclusive: -8.6%
4,CC(=O)N1c2ccc(S(=O)(=O)N3CCCC3C(=O)NCc3ccccc3Cl)cc2CC1C (configuration not stated),inactive: -7.5%
5,CCCCSc1ncnc2c1ncn2C1CCCCO1 (configuration not stated),inactive: -4.7%
6,COc1ccc2nc(Cl)cc(Cl)c2c1,inconclusive: 5%
7,O=C(CSc1ccc(F)cc1)Nc1ccc(C2SCCS2)cc1,inconclusive: -49.7%
8,Cc1ccc(NC(=O)CN2CCc3ccccc3C2)cc1C,inconclusive: -21.8%
9,Clc1nc2nc3n(c2nc1Cl)CCC3,inconclusive: -8.6%
10,CCCn1c(SCC#N)nc2c(c1=O)C1(CCCC1)Cc1ccccc1-2,inconclusive: 15.6%
11,O=C(COC(=O)CN1C(=O)c2ccccc2C1=O)NC1CCCC1,inactive: 3.5%
12,CC(C)N(Cc1ccccc1)C(=O)CC(=O)N(Cc1ccccc1)C(C)C,active: 36.2%
13,COc1cc(-c2ccc3oc(-c4ccsc4)cc(=O)c3c2)cc(OC)c1OC,inactive: -5.4%
14,O=C(C1CN(C(=O)c2cc3ccccc3o2)c2ccccc2O1)N1CCCCC1 (configuration not stated),inactive: -10%
15,NC(=NC(=O)c1ccccc1)N1CCN(C(c2ccccc2)c2ccccc2)CC1,inconclusive: 0.6%
16,COc1ccccc1OCC(=O)Nc1ccncc1,inconclusive: -28.1%
17,O=[N+]([O-])c1cc(/C=N/O)ccc1Sc1ccccc1,inactive: -7.7%
18,COc1ccc(C2CN=NC2C(=O)c2ccccc2)cc1 (configuration not stated),inconclusive: 17.4%
19,CC[C@]12C(=O)N(C)C[C@H]([C@@H]3C(=O)N(Cc4ccccc4)C(=O)[C@@H]31)N2C(=O)c1ccc(F)cc1,inactive: 1.3%
20,CCCOc1ccc2cc(-c3ccccn3)c(=O)oc2c1,inactive: -3.4%
21,CC(OC(=O)C1=COCCO1)C(=O)Nc1ncc(Cl)cc1Cl (configuration not stated),inconclusive: -5.6%
22,O=C(N/N=C/c1ccccn1)c1ccc(Cl)c(Cl)c1,inactive: -5%
23,CC(Sc1nnc(C(F)(F)F)n1C)C(=O)Nc1ccc(N2CCOCC2)cc1 (configuration not stated),inconclusive: 2.7%

row,Compound,inhibition
1,CN(C)c1cc(-c2ccc(F)cc2)oc(=O)c1Cl,inconclusive: -13.8%
2,S=c1nc2ccccc2c2nc(-c3ccccc3Cl)[nH]n12,inconclusive: -33.1%
3,O=C(Nc1ccccc1)Nc1ccccc1C(=O)NCCCN1CCOCC1,inconclusive: 120%
4,Cc1nn2c(NCCOCCO)c3c(nc2c1-c1ccccc1)CCC3,inconclusive: 29.5%
5,CCOC(=O)c1ccc(NS(=O)(=O)c2cc(-c3nnnn3CC)ccc2OC)cc1,inactive: 0.3%
6,CCCCn1c(N)c(N(CCOC)C(=O)C2CCN(S(=O)(=O)c3ccc(C)cc3)CC2)c(=O)[nH]c1=O,inconclusive: -12.1%
7,O=C(CNS(=O)(=O)c1ccccc1)N1CCc2ccccc2C1,inconclusive: -10.8%
8,Cc1cccc(NCC(O)Cn2cnc3c2c(=O)n(C)c(=O)n3C)c1 (configuration not stated),inconclusive: -26.4%
9,O=c1c(Cc2ccccc2)c(O)nc2n1CCS2,inconclusive: -13.1%
10,Clc1ccc2c(NCc3ccccc3)ccnc2c1,inactive: -0.5%
11,Cc1ccc(C2/C(=C(\O)c3c(C)nc4c(C)cccn34)C(=O)C(=O)N2CCN(C)C)o1 (configuration not stated),inconclusive: 53.5%
12,O=C(CCn1ccnc1)Nc1ccc2ccccc2c1,active: 37.5%
13,Cc1ccc(-c2nc3ncccc3o2)cc1NC(=S)NC(=O)c1ccco1,inactive: -6.2%
14,Cc1ccc(C(C)C)c(OCC(=O)NNC2=CC(=O)CC(C)(C)C2)c1,inconclusive: 52.4%
15,CN(C)c1ccc(NC(=O)/C=C/c2c(Cl)cccc2Cl)cc1,inactive: -15.6%
16,COc1ccc2nc(C(F)(F)Cl)c(C#N)c(N)c2c1,inconclusive: 168%
17,CCn1cc(C(=O)Nc2ccc(C)cc2[N+](=O)[O-])c(C)n1,inconclusive: -44.6%
18,Cc1ccc(SCCC(=O)Nc2ccccc2C(=O)NC2CCCCC2)cc1,active: 39.2%
19,COC(=O)[C@H](CCSC)NC(=O)Cn1cnc2c(SC)nc(N)nc21,inactive: -1.4%
20,Cc1nn(CC(=O)NC2CCC(C)CC2)c(=O)c(C#N)c1C (configuration not stated),inconclusive: 1%
21,COc1cc(CC(=O)OCc2ccccc2F)cc(OC)c1OC,inactive: -6.5%
22,O/N=C1\CCSc2ccc(F)cc21,inconclusive: 1.1%
23,COc1cccc(-c2nnc(-c3ccccc3[N+](=O)[O-])o2)c1,inactive: -3.8%

# Quoted from the results shown for reference:
row,Compound,inhibition
21,COc1cc(CC(=O)OCc2ccccc2F)cc(OC)c1OC,inactive: -6.5%
22,O/N=C1\CCSc2ccc(F)cc21,inconclusive: 1.1%
23,COc1cccc(-c2nnc(-c3ccccc3[N+](=O)[O-])o2)c1,inactive: -3.8%

# Some of the entries so far, with bars between the fields.
row | Compound | inhibition
12 | O=C(CCn1ccnc1)Nc1ccc2ccccc2c1 | active: 37.5%
13 | Cc1ccc(-c2nc3ncccc3o2)cc1NC(=S)NC(=O)c1ccco1 | inactive: -6.2%

# Source: PubChem BioAssay AID588497 (NMMLSC, 2011)
